The text below walks through data of US20160146830A1.

Substitutions are numbered along the chain they refer to. No constants are given. Whether binding was seen depends on the method and setting. Binding can be weak; no strength is given.

The assay deals with Concholepas concholepas hemocyanin (CCH) (Concholepas concholepas). The assay is described as follows: monoclonal phage ELISA on CCH-coated plates, anti-M13-HRP. For orientation: ELISA stands for enzyme-linked immunosorbent assay.

B1: scFv clone 2 (VH/Clone ID 2) (scFv)
scFv: QEQLEESGGDLVKPEGSLTLTCTASGFSFSSSYWIWWVRQAPGKGLEWIACIYTGSGTTYYANWAKGRFTISKTSSTTVTLQMTSLTAADTATYFCARMDSHSDGFDPWGPGTLVSVSSGGGGSGGGGSGVELTQTPASVSEPVGGTVTIKCQASQNIYSDLAWYQQKPGQPPKRLIYDASKLPSGVPSRFKGSGSGTEYTLTISDLECADAATYYCQTYHDFDVYGVAFGGGTEVVVE
For the molecule B1, the binding result is reported as “binds”.

B2: scFv clone 1 (VH/Clone ID 1) (scFv)
scFv: QEQLEESGDLVKPGASLTLTCTASGFSFSSSYYMAWVRQAPGKGLEWIGCMNSGGDTAYASWAKGRFSISKTSSTTMTLQLTSLTAADTATYFCARNVAGYLCAPAFNFRSPGTLVTVSSGGGSGGGSADVMTQTPSSVTAAVGGTVSISCRSSKSVYNNNWLSWYQQKPGQPPKLLIYETSKLPSGVPSRFSGSGSGTQFTLTISDLECDDAATYYCAGGYRSSSDNGFGGGTEVVVK
For the molecule B2, the binding result is listed as “binds”.

B3: scFv clone 8 (VH/Clone ID 8) (scFv)
scFv: QQLEESGDLVKPGGTLTLSCTASGFSFSSSYYMCWVRQAPGKGLEWIACIYTGSGSTNYASWAKGRFTISKSSSTTVTLQMTSLTAADTATYFCARSPSSGSSNLWGPGTLVTVSSGGGGSGGGGSGDVMTQTPASVSAAVGGTVTIKCQASQSISNYLSWYQQKPGQRPKLLIDAASTLASGVPSRFKGSGSGTESTLTISDLECADAATYYCLYGYYGVSSTSVAFGGGTEVVVE
In the case of B3, the binding entry was “binds”.

B4: scFv clone 5A2 (scFv)
scFv: QSLEESGDLVKPGSSLTLTCTGSGFSFSNKYWICWVRQAPGKGLEWIGCIYIGNIDNTDYASWAKGRFTISSTSSTTVTLQMTSLTAADTATYFCARNPGGTSNLWGPGTLVTVSSGGGGSGGGGSGAIVLTQTPSSVEAAVGGTVTIKCQASQSIGSILAWYQQKPGQRPKLLIYYASTLASGVPSRFKGSGSGTQFILTISDLECADAATYYCQSYGYSSSGSYGYRNAFGGGTEVVVE
Regarding B4, the binding result is “binds”.

B5: scFv clone 5F4 (scFv)
scFv: B4 scFv with A128D, I129V, L131M, S158N, I159V, Y177L, G224S, E241K
Turning to B5, the binding result is “binds”.
